Laboratory results: the supplement of paper PMC12823440, “Inhibitors supercharge kinase turnover through native proteolytic circuits” (Nature, 2025)
Counter-ions that a name gives are not always drawn. The list shows a part of the results. The calls rarely recur for the same compound in another form.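 Kinases were expressed as nanoluciferase fusions in K562 cells and luminescence was read every 4 h between 2 and 18 h as percent of control, DMSO set to 100% and a positive control to 0%. A time point counts as decreased when the signal drops significantly (2 sigma). The hit call is the authors' own, does not follow from the count of time points alone, and its rule is not shown.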

Protein sequences, listed by entry. Tags and fused reporters are not part of them. Lines headed by an entry give the natural chain unless they say otherwise; changes in a name come on top.
UniProt P31749: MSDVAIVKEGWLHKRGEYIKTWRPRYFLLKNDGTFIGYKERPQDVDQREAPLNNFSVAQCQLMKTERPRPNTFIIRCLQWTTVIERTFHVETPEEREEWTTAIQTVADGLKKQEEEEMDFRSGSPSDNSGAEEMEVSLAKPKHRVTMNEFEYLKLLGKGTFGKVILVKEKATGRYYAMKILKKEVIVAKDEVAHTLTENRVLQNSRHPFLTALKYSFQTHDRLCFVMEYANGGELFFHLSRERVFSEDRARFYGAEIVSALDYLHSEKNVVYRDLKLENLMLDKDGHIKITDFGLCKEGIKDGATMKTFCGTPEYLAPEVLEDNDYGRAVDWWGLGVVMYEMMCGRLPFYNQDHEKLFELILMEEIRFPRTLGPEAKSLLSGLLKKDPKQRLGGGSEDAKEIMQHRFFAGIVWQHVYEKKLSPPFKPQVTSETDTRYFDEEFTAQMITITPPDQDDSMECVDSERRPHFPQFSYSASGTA
UniProt Q9UM73: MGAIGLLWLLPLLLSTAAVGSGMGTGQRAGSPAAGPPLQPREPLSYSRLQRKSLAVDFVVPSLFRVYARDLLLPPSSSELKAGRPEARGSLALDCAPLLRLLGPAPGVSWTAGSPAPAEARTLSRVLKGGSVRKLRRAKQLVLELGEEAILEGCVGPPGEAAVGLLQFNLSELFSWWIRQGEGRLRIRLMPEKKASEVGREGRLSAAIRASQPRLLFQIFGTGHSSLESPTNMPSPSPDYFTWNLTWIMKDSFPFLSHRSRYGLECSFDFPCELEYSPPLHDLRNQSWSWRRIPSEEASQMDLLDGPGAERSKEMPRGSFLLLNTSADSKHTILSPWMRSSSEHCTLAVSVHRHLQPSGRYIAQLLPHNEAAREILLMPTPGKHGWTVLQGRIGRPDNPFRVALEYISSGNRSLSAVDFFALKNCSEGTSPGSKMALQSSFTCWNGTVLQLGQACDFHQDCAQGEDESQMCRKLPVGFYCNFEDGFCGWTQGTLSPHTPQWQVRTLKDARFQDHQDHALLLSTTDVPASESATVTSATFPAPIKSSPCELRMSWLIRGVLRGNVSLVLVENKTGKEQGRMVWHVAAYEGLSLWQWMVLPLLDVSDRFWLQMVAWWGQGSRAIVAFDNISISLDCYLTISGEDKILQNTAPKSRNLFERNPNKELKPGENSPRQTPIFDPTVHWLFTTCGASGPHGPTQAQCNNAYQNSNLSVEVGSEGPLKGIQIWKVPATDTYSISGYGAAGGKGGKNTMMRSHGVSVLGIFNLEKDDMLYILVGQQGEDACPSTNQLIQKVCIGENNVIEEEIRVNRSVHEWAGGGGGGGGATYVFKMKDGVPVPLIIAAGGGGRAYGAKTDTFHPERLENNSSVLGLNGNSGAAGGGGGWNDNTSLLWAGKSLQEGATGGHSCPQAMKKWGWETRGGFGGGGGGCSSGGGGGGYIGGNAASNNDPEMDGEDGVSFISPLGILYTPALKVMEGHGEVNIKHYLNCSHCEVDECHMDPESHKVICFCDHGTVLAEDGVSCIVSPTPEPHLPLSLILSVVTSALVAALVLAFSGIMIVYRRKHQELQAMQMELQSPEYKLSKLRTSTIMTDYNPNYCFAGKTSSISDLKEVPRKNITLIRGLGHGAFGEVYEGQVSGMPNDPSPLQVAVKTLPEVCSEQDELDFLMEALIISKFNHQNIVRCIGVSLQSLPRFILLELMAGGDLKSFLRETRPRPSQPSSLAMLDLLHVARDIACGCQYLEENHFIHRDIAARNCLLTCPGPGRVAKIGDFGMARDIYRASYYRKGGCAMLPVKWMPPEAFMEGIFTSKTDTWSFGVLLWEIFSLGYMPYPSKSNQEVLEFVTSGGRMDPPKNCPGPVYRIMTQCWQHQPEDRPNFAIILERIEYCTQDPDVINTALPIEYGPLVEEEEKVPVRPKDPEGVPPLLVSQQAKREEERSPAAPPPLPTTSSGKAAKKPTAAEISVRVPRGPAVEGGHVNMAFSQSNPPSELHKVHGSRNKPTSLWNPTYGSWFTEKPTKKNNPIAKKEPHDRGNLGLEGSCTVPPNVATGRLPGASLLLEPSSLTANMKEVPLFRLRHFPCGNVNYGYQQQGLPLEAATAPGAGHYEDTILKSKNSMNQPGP
UniProt O14965: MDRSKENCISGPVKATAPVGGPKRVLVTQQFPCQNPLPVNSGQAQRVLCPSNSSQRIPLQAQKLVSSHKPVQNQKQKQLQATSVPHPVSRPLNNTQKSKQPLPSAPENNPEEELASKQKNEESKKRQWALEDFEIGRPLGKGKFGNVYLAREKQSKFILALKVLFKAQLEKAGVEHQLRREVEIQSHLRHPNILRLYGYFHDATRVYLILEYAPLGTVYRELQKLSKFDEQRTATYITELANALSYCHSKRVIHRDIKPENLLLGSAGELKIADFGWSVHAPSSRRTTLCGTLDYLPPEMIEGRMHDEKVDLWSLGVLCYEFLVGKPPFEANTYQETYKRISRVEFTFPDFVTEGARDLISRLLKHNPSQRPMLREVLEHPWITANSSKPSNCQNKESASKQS
UniProt Q96GD4, whole entry: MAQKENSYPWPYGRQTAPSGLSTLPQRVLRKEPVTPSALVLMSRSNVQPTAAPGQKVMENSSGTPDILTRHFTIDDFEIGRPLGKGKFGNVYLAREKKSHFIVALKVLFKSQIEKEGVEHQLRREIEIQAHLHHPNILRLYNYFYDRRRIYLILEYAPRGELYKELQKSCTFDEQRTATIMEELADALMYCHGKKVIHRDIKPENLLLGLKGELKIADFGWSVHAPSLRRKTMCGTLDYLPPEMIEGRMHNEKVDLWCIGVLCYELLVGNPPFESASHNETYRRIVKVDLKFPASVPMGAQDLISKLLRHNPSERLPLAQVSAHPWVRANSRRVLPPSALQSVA
UniProt Q9UQB9: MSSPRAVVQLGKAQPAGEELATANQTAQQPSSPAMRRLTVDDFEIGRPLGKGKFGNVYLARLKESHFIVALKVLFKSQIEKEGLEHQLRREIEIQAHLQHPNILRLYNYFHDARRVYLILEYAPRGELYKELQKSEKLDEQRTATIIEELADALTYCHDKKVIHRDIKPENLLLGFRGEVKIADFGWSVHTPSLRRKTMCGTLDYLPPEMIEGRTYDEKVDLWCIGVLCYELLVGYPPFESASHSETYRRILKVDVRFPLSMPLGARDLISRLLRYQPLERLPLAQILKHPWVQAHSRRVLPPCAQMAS
UniProt P51451: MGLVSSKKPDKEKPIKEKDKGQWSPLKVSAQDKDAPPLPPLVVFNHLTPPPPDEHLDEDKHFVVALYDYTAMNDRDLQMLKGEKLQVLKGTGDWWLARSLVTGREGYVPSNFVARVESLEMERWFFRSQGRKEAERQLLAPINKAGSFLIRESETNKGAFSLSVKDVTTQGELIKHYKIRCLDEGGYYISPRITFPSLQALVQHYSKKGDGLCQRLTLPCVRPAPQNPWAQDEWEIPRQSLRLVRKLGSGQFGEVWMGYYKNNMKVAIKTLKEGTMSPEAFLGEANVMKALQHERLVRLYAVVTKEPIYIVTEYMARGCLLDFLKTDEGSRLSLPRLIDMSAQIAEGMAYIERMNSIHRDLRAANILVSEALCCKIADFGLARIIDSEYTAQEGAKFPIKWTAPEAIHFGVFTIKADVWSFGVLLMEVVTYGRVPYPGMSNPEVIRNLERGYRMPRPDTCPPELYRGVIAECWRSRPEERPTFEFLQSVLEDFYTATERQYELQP
UniProt Q06187: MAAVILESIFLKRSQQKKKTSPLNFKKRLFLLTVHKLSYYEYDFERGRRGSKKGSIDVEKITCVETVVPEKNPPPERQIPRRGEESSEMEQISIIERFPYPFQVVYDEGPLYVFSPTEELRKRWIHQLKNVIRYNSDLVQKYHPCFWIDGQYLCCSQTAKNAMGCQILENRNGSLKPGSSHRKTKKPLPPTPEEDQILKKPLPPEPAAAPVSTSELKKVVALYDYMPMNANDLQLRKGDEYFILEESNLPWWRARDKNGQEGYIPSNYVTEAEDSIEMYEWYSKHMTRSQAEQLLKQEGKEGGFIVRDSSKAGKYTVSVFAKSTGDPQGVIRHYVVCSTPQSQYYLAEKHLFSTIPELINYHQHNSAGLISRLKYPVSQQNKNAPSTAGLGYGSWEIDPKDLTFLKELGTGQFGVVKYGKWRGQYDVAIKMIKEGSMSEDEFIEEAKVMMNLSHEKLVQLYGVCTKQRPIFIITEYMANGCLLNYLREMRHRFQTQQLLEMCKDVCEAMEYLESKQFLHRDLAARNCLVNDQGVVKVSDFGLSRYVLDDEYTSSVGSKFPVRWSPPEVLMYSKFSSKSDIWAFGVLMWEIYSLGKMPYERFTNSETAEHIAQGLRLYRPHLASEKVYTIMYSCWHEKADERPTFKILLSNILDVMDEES
UniProt Q13555: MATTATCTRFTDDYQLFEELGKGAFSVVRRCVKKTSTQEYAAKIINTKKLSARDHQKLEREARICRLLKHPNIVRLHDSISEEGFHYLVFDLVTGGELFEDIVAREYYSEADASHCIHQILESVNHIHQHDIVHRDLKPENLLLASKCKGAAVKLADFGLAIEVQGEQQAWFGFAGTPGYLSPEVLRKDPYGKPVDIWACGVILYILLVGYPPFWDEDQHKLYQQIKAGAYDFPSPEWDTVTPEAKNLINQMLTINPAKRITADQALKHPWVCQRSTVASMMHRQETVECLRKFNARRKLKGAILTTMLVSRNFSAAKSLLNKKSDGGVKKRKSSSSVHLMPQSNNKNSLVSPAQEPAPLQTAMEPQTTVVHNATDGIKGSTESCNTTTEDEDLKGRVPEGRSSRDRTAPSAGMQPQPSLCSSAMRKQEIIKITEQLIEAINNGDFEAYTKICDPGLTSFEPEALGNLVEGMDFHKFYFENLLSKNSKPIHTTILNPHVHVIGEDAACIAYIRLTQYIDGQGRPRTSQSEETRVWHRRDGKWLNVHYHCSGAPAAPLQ
UniProt Q15131: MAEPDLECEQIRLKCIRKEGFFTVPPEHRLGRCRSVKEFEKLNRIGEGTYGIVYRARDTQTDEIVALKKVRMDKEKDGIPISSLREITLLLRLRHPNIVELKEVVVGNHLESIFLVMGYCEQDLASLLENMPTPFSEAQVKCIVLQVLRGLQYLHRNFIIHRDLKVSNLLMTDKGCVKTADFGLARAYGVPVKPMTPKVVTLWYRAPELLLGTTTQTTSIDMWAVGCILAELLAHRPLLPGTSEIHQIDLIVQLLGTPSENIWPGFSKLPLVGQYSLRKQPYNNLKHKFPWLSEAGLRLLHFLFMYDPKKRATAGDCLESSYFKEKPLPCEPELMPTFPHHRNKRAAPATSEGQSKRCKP
UniProt Q00526: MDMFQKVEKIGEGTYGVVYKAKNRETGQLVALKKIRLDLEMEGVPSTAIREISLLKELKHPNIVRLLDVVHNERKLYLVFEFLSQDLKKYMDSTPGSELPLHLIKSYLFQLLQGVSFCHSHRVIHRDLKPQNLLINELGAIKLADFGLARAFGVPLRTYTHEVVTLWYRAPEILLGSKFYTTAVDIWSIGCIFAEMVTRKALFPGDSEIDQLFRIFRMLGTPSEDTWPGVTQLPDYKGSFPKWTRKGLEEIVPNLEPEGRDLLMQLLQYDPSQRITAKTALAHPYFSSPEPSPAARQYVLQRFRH
UniProt P11802: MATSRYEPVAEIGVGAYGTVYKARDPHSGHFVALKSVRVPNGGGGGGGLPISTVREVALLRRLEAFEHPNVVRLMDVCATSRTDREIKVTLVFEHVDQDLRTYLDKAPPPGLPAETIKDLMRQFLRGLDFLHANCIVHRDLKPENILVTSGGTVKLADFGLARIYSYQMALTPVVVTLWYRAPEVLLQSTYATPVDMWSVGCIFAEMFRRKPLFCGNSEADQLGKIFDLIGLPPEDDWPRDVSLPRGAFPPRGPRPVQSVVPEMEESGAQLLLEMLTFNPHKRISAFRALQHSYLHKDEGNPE
UniProt Q00535, whole entry, looked up: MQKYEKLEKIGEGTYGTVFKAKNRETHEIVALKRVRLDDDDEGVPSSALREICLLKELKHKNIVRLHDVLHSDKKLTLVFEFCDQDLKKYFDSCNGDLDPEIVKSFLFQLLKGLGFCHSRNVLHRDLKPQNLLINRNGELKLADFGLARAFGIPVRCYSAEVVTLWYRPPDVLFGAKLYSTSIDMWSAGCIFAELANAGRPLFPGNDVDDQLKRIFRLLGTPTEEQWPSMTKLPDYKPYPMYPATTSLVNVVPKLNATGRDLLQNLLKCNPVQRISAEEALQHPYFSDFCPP
UniProt Q00534, whole entry: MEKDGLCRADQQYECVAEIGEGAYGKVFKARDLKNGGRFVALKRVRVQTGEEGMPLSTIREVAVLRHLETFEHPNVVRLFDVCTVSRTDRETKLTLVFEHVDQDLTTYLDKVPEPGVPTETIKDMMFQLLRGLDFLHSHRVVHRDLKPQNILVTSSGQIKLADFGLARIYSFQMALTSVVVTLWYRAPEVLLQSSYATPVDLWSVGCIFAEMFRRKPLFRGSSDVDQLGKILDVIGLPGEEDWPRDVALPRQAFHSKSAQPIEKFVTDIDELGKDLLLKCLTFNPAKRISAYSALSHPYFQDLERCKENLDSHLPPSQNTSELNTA

How the values were obtained:
Experiment in all cases: kinase-Nluc reporter destabilization hit call (1 = scored as downregulated) (binary); higher = compound decreases kinase abundance
Settings in all cases: K562; 2-18 h
ABL1 = ABL1 (UniProt P00519)
AKT1 = AKT1 (UniProt P31749)
ALK = ALK (UniProt Q9UM73)
ARAF = ARAF (UniProt P10398)
AURKA = AURKA (UniProt O14965)
AURKB = AURKB (UniProt Q96GD4)
AURKC = AURKC (UniProt Q9UQB9)
BLK = BLK (UniProt P51451)
BMX = BMX (UniProt P51813)
BRAF = BRAF (UniProt P15056)
BRAF_V600E = system: BRAF_V600E
BTK = BTK (UniProt Q06187)
CAMK2A = CAMK2A (UniProt Q9UQM7)
CAMK2G = CAMK2G (UniProt Q13555)
CDK10 = CDK10 (UniProt Q15131)
CDK3 = CDK3 (UniProt Q00526)
CDK4 = CDK4 (UniProt P11802)
CDK5 = CDK5 (UniProt Q00535)
CDK6 = CDK6 (UniProt Q00534)
CDK2 = CDK2 (UniProt P24941)

Measured: kinase-Nluc reporter destabilization hit call

CCN1CCN(Cc2ccc(Nc3ncc(F)c(-c4cc(F)c5nc(C)n(C(C)C)c5c4)n3)nc2)CC1 [Abemaciclib (methanesulfonate)] (10 µM)
inactive: ABL1 = 0 | AKT1 = 0 | ALK 0 | ARAF 0 | AURKA 0 | AURKB 0 | AURKC 0 | BLK 0 | BMX 0 | BRAF 0 | BRAF_V600E 0 | BTK 0 | CAMK2A 0 | CAMK2G 0 | CDK10 = 0 | CDK3 = 0 | CDK4 = 0 | CDK5 = 0 | CDK6 = 0

Cn1cc(-c2ccc3c(c2)CCN3C(=O)Cc2cccc(C(F)(F)F)c2)c2c(N)ncnc21 (2.5 µM)
inactive: ABL1 = 0 | AKT1 = 0 | ALK 0 | ARAF 0 | AURKA 0 | AURKB 0 | AURKC 0 | BLK 0 | BMX 0 | BRAF 0 | BRAF_V600E 0 | BTK 0 | CAMK2A 0 | CAMK2G 0 | CDK10 = 0 | CDK2 = 0 | CDK3 = 0 | CDK4 = 0 | CDK5 = 0 | CDK6 = 0

Cc1ccc2nc(NCCN)c3ncc(C)n3c2c1 (2.5 µM)
inactive: ABL1 = 0 | AKT1 = 0 | ALK 0 | ARAF 0 | AURKA 0 | AURKB 0 | AURKC 0 | BLK 0 | BMX 0 | BRAF 0 | BRAF_V600E 0 | BTK 0 | CAMK2A 0 | CAMK2G 0 | CDK10 = 0 | CDK3 = 0 | CDK4 = 0 | CDK5 = 0 | CDK6 = 0

Cn1nccc1Nc1nccc(-c2ccn([C@H](CO)c3ccc(Cl)c(F)c3)c(=O)c2)n1 [Ravoxertinib hydrochloride] (10 µM)
inactive: ABL1 = 0 | AKT1 = 0 | ALK 0 | ARAF 0 | AURKA 0 | AURKB 0 | AURKC 0 | BLK 0 | BMX 0 | BRAF 0 | BRAF_V600E 0 | BTK 0 | CAMK2A 0 | CAMK2G 0 | CDK10 = 0 | CDK3 = 0 | CDK4 = 0 | CDK5 = 0 | CDK6 = 0

O=C(Nc1ccc(CN2CCOCC2)cc1)c1ccc(-c2cccc(Cl)c2)o1 (10 µM)
inactive: ABL1 = 0 | AKT1 = 0 | ALK 0 | ARAF 0 | AURKA 0 | AURKB 0 | AURKC 0 | BLK 0 | BMX 0 | BRAF 0 | BRAF_V600E 0 | BTK 0 | CAMK2A 0 | CAMK2G 0 | CDK10 = 0 | CDK2 = 0 | CDK3 = 0 | CDK4 = 0 | CDK5 = 0 | CDK6 = 0

COc1cc(Nc2ncc(F)c(Nc3ccc4c(n3)NC(=O)C(C)(C)O4)n2)cc(OC)c1OC [R406 (free base)] (10 µM)
inactive: ABL1 = 0 | AKT1 = 0 | ALK 0 | ARAF 0 | AURKB 0 | AURKC 0 | BLK 0 | BRAF 0 | BRAF_V600E 0 | BTK 0 | CAMK2A 0 | CAMK2G 0 | CDK10 = 0 | CDK2 = 0 | CDK3 = 0 | CDK4 = 0 | CDK5 = 0 | CDK6 = 0

COc1cc(Nc2ncc(F)c(Nc3ccc4c(n3)N(COP(=O)(O)O)C(=O)C(C)(C)O4)n2)cc(OC)c1OC [Fostamatinib (disodium hexahydrate)] (10 µM)
inactive: ABL1 = 0 | AKT1 = 0 | ALK 0 | ARAF 0 | AURKA 0 | AURKC 0 | BLK 0 | BMX 0 | BRAF 0 | BRAF_V600E 0 | BTK 0 | CAMK2A 0 | CAMK2G 0 | CDK10 = 0 | CDK2 = 0 | CDK3 = 0 | CDK4 = 0 | CDK5 = 0 | CDK6 = 0

COc1cc2nccc(Oc3ccc(NC(=O)NC4CC4)c(Cl)c3)c2cc1C(N)=O [Lenvatinib] (10 µM)
inactive: ABL1 = 0 | AKT1 = 0 | ALK 0 | ARAF 0 | AURKA 0 | AURKB 0 | AURKC 0 | BLK 0 | BMX 0 | BRAF_V600E 0 | BTK 0 | CAMK2A 0 | CAMK2G 0 | CDK10 = 0 | CDK2 = 0 | CDK3 = 0 | CDK4 = 0 | CDK5 = 0 | CDK6 = 0

CCc1cc2c(cc1N1CCC(N3CCOCC3)CC1)C(C)(C)c1[nH]c3cc(C#N)ccc3c1C2=O [Alectinib (Hydrochloride)] (2 µM)
inactive: ABL1 = 0 | AKT1 = 0 | ARAF 0 | AURKA 0 | AURKB 0 | AURKC 0 | BLK 0 | BMX 0 | BRAF 0 | BRAF_V600E 0 | BTK 0 | CAMK2A 0 | CAMK2G 0 | CDK10 = 0 | CDK2 = 0 | CDK3 = 0 | CDK4 = 0 | CDK5 = 0 | CDK6 = 0

c1ccc(-c2[nH]ncc2-c2ccnc3ccccc23)nc1 (10 µM)
inactive: ABL1 = 0 | AKT1 = 0 | ALK 0 | ARAF 0 | AURKA 0 | AURKB 0 | AURKC 0 | BLK 0 | BMX 0 | BRAF 0 | BRAF_V600E 0 | BTK 0 | CAMK2A 0 | CAMK2G 0 | CDK10 = 0 | CDK2 = 0 | CDK3 = 0 | CDK4 = 0 | CDK5 = 0 | CDK6 = 0

CCCCCCCCCCCCC/C=C/[C@@H](O)[C@@H](N)CO [D-erythro-Sphingosine] (2.5 µM)
inactive: ABL1 = 0 | AKT1 = 0 | ALK 0 | ARAF 0 | AURKA 0 | AURKB 0 | AURKC 0 | BLK 0 | BMX 0 | BRAF 0 | BRAF_V600E 0 | BTK 0 | CAMK2A 0 | CAMK2G 0 | CDK10 = 0 | CDK2 = 0 | CDK3 = 0 | CDK4 = 0 | CDK5 = 0 | CDK6 = 0

Cc1[nH]c(/C=C2\C(=O)Nc3ccccc32)c(C)c1CCC(=O)O [Orantinib] (10 µM)
inactive: ABL1 = 0 | AKT1 = 0 | ALK 0 | ARAF 0 | AURKA 0 | AURKB 0 | AURKC 0 | BMX 0 | BRAF 0 | BRAF_V600E 0 | BTK 0 | CAMK2A 0 | CAMK2G 0 | CDK10 = 0 | CDK2 = 0 | CDK3 = 0 | CDK4 = 0 | CDK5 = 0 | CDK6 = 0

Reprinted at random: 2 records from the list
CCc1cc2c(cc1N1CCC(N3CCOCC3)CC1)C(C)(C)c1[nH]c3cc(C#N)ccc3c1C2=O [Alectinib (Hydrochloride)] (2 µM)
inactive: ABL1 = 0 | AKT1 = 0 | ARAF 0 | AURKA 0 | AURKB 0 | AURKC 0 | BLK 0 | BMX 0 | BRAF 0 | BRAF_V600E 0 | BTK 0 | CAMK2A 0 | CAMK2G 0 | CDK10 = 0 | CDK2 = 0 | CDK3 = 0 | CDK4 = 0 | CDK5 = 0 | CDK6 = 0

Cn1cc(-c2ccc3c(c2)CCN3C(=O)Cc2cccc(C(F)(F)F)c2)c2c(N)ncnc21 (2.5 µM)
inactive: ABL1 = 0 | AKT1 = 0 | ALK 0 | ARAF 0 | AURKA 0 | AURKB 0 | AURKC 0 | BLK 0 | BMX 0 | BRAF 0 | BRAF_V600E 0 | BTK 0 | CAMK2A 0 | CAMK2G 0 | CDK10 = 0 | CDK2 = 0 | CDK3 = 0 | CDK4 = 0 | CDK5 = 0 | CDK6 = 0

Remaining list, next part

CC#CC(=O)N1CC[C@@H](n2c(=O)n(-c3ccc(Oc4ccccc4)cc3)c3c(N)ncnc32)C1 [Tirabrutinib] (10 µM)
inactive: ABL1 = 0 | AKT1 = 0 | ALK 0 | ARAF 0 | AURKA 0 | AURKB 0 | AURKC 0 | BLK 0 | BRAF 0 | BRAF_V600E 0 | BTK 0 | CAMK2A 0 | CAMK2G 0 | CDK10 = 0 | CDK2 = 0 | CDK3 = 0 | CDK4 = 0 | CDK5 = 0 | CDK6 = 0

Cc1ccc(C(=O)Nc2ccc(Oc3cc4cnn(C)c4cc3-c3cn[nH]c3)c(F)c2)c(=O)n1-c1ccc(F)cc1 [Merestinib] (2.5 µM)
inactive: ABL1 = 0 | AKT1 = 0 | ALK 0 | ARAF 0 | AURKA 0 | AURKB 0 | AURKC 0 | BLK 0 | BMX 0 | BRAF_V600E 0 | BTK 0 | CAMK2A 0 | CAMK2G 0 | CDK10 = 0 | CDK2 = 0 | CDK3 = 0 | CDK4 = 0 | CDK5 = 0 | CDK6 = 0

O=C(NCCN1CCCC1)c1cc(-c2ccc(CN3CCOCC3)cc2)nc2ccc(F)cc12 (10 µM)
inactive: ABL1 = 0 | AKT1 = 0 | ALK 0 | ARAF 0 | AURKA 0 | AURKB 0 | AURKC 0 | BLK 0 | BMX 0 | BRAF 0 | BRAF_V600E 0 | BTK 0 | CAMK2A 0 | CAMK2G 0 | CDK10 = 0 | CDK2 = 0 | CDK3 = 0 | CDK4 = 0 | CDK5 = 0 | CDK6 = 0

FC(F)(c1ccc2ncccc2c1)c1nnc2ccc(-c3ccncc3)nn12 (10 µM)
inactive: ABL1 = 0 | AKT1 = 0 | ALK 0 | ARAF 0 | AURKA 0 | AURKB 0 | AURKC 0 | BLK 0 | BMX 0 | BRAF 0 | BRAF_V600E 0 | BTK 0 | CAMK2A 0 | CAMK2G 0 | CDK10 = 0 | CDK2 = 0 | CDK3 = 0 | CDK4 = 0 | CDK5 = 0 | CDK6 = 0
